Source: PubChem BioAssay AID2685 (National Center for Advancing Translational Sciences (NCATS), 2010)
Several values for one entry are separate records, joined by “and”; a condition that tells them apart may be missing. Identical values can stand only once. This is one part of the list. The main result of the screen is listed elsewhere. These columns were measured beside it and carry no call. Compounds called inactive in the main read-out are mostly missing here. Potencies come from curve fits of mixed quality, noted in brackets.

Experiment: qHTS Assay for Lipid Storage Modulators in Drosophila S3 Cells;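 for cell number change: cells counted by Cell Tracker Red CMTPX staining in the red channel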
Details: BODIPY lipid droplet fluorescence, 18-24 h; for cell number change: measured here: cell count max response, cells fed with added oleic acid
Summary of the method: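 Drosophila S3 cells loaded with oleic acid (400 uM, as added) and compounds at several concentrations; lipid droplets imaged by 488-nm laser-scanning cytometry, 500–530 nm intensity and object ratio to cell channel. Percent activity normalized to 20 uM Triacsin C.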

[1] = measured here: cell number channel AC50, cells fed with added oleic acid
[2] = measured here: lipid fluorescence (Fed channel) AC50, cells fed with added oleic acid

| SMILES | cell number change | AC50 [1] | AC50 [2] |
| --- | --- | --- | --- |
| Nc1cnn(Cc2ccccc2F)c1 | 7.2% | 0.13 µM [falling, full curve, poor fit] |  |
| Cc1ccc(SCC(=O)Nc2ccc(-c3nc4ccccc4[nH]3)cc2)cc1 | -65.3% | 18.4 µM [falling, single point] | 6.51 µM [rising, partial curve, poor fit] |
| CCOc1ccc(/C=C(\C#N)C(=O)Nc2cccnc2)cc1 | 2.86% |  | 0.517 µM [rising, partial curve] |
| O=C(Nn1cnc2ccccc2c1=O)c1ccccc1Cl | 2.66% |  | 0.00461 µM [falling, full curve, poor fit] |
| CCOC(=O)COc1ccc2c(c1)C(=O)CC(C)(c1cccnc1)O2 (configuration not stated) |  |  | 0.082 µM [rising, full curve, poor fit] |
| O=C(Nc1ccc([N+](=O)[O-])cc1)c1cc2ccccc2nc1Cl | 7.69% |  | 4.61 µM [rising, full curve] |
| O=C(NCc1ccco1)c1ccc(C(F)(F)F)cc1 | -46.8% | 2.06 µM [rising, single point] | 29.1 µM [falling, single point] |
| O=C(COc1ccc(Br)cc1)Nc1ccc(CN2CCOCC2)cc1 |  |  | 29.1 µM [falling, single point] |
| CCC1CCCCN1C/C=C/c1ccccc1[N+](=O)[O-] (configuration not stated) | 26.8% | 0.00461 µM [rising, full curve, poor fit] | 0.116 µM [rising, full curve, poor fit] |
| COC(=O)C1=C(C)N(Cc2ccccc2)C(=NCc2cccc(C(F)(F)F)c2)N[C@H]1c1cccc(F)c1 | -47% and -31.6% | 29.1 µM [falling, single point] | 16.4 µM [falling, partial curve] |
| CCC(C(=O)OCC(=O)Nc1ccc(Cl)c(S(=O)(=O)N(C)C)c1)c1ccccc1 (configuration not stated) | -17.2% |  | 11.6 µM [falling, partial curve] |
| COc1cccc(NC(=O)C(OC(=O)c2cnc(C)cn2)c2ccccc2)c1 (configuration not stated) | -4.27% |  | 29.1 µM [falling, partial curve, poor fit] |
| Cc1ccccc1C(=O)N=c1c(C#N)cc2c(=O)n3cccc(C)c3nc2n1Cc1ccco1 | 28.1% | 1.3 µM [rising, partial curve] | 0.517 µM [rising, full curve] |
| CC(C)C[C@H](NC(=O)[C@@H](Cc1ccccc1)n1c(=O)[nH]c2ccccc2c1=O)C(=O)N[C@@H](Cc1ccccc1)C(=O)O | 15% |  | 5.8 µM [rising, full curve] |
| CCN(CC)c1ccc2c(cc1=O)[C@@H](NC)CCc1cc(OC)c(OC)c(OC)c1-2 |  |  | 1.16 µM [rising, partial curve, poor fit] |
| Cc1ccc(/C=C/c2ccc(N(C)C)cc2)[n+](C)c1 | -57.2% | 23.1 µM [falling, partial curve] | 4.11 µM [falling, full curve, poor fit] |
| CC(=O)Nc1ccc(-c2nc3ccc(NC(C)=O)cc3o2)cc1 | 54.1% |  | 29.1 µM [rising, single point] |
| Cc1cc(-c2ccccc2)nc2cc(C(=O)N(Cc3ccccc3)Cc3ccccc3)nn12 | -31.6% | 29.1 µM [falling, single point] | 29.1 µM [falling, single point] |

| SMILES | cell number change | AC50 [1] | AC50 [2] |
| --- | --- | --- | --- |
| CCc1cccc(C)c1NC(=O)COC(=O)CC1CCCC1 | 32.3% | 29.1 µM [rising, single point] |  |
| Cc1c(Cl)cccc1S(=O)(=O)N1CCC(C(=O)NNC(=O)C2CC2)CC1 | 8.43% |  | 0.00517 µM [rising, full curve, poor fit] |
| CC(C)Oc1cccc(-c2cc(C(=O)N3CCN(c4ncccn4)CC3)c3ccccc3n2)c1 | -27.8% |  | 25.9 µM [falling, single point] |
| Cc1ccc(NC(=O)c2ccc3c(c2)C(=O)N(c2ccccc2C)C3=O)nc1 | -27.2% |  | 29.1 µM [falling, single point] |
| COc1ccc(CNCc2cn(-c3cccc(F)c3)nc2-c2ccc(C)o2)cc1 | -59.9% | 18.4 µM [falling, single point] | 29.1 µM [falling, single point] |
| CCOC(=O)c1sc(NC(=O)Nc2ccc(F)cc2)nc1C | -23.8% |  | 18.4 µM [falling, single point] |
| CCCCN1C(=O)CC(C(=O)O)C1c1ccc(OC)cc1 (configuration not stated) | -57.8% | 11.6 µM [falling, partial curve] | 18.4 µM [falling, single point] |
| COC(=O)c1cc(C(=O)NCc2ccc3c(c2)OCO3)cc([N+](=O)[O-])c1 | 0.365% |  |  |
| O=C(c1ccc(=O)oc1)N1CCN(c2ccc(F)cc2)CC1 | 9.06% |  |  |
| CSc1nc(-c2ccccc2)nc(C(Cl)Cl)n1 |  |  | 7.31 µM [falling, partial curve] |
| CC1CN(S(=O)(=O)c2csc(C(=O)Nc3ccccc3)c2)CC(C)O1 (configuration not stated) | -27% |  | 13 µM [falling, partial curve] |
| CCCCn1c(N)c(N(Cc2ccccc2OC)C(=O)COc2ccc(C)cc2)c(=O)[nH]c1=O | 20.1% | 1.46 µM [rising, partial curve, poor fit] | 3.26 µM [rising, full curve] |
| CCOC(=O)c1c(C)nc2sc(C(=O)Nc3ccc(C(C)=O)cc3)c(N)c2c1-c1ccc(OC)cc1 | 9.35% |  | 4.61 µM [falling, single point] |
| COc1ccc(C(=O)O)cc1S(=O)(=O)N(C)CCc1ccccn1 | -22.9% |  |  |
| CC(NC(=O)C12CC3CC(CC(O)(C3)C1)C2)c1ccc(Cl)cc1Cl (configuration not stated) | -3.6% |  | 29.1 µM [rising, single point] |
| COc1ccc(S(=O)(=O)n2cnc3ccccc32)cc1 |  |  | 0.291 µM [rising, single point] |
| CCn1c(CC(=O)Nc2ccccc2)nnc1SCC(=O)Nc1nncs1 | 14.4% |  | 0.58 µM [rising, single point] |
